Laboratory results: PubChem BioAssay AID1224828 (NIAID, 2016)

- Test: 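Regulators linking TLR4 signalling to p65 nuclear translocation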 (primary screen)
- Cells: mouse RAW264.7 G9 macrophage reporter cells (GFP-p65, Tnf promoter-mCherry)
- Reagent: siRNA pool against mouse genes, 100 nM
- Timing: 2 days siRNA transfection, then 40 min LPS before fixation
- Treatment: LPS (Salmonella minnesota R595) at 10 ng/ml
- Measured: 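Imaged p65 nuclear translocation ratio, normalised to the plate median, converted to robust z-scores and averaged across two replicates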
- Direction: p65 translocation robust z-score: higher = more nuclear NF-kappaB p65 after LPS than the plate median; nuclear/cytoplasmic p65 ratio: higher = more nuclear NF-kappaB p65
- Hit rule: 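Called active when z exceeds 3.3 or falls under -1.56 (median of Tlr4 controls), giving activity score of at least 50; no calls for control wells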
- Calls: active = hit (p65 shift raised or lowered); inactive = no clear change
Shown is a random part of about 17,000 deposited reagents. In the full data, 762 (4.5%) are marked active. 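Active calls include both raised and lowered p65 entry, mostly lowered; wells with fewer than 50 cells lack a z-score.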 Raw values are not corrected between plates.

Elp4 (elongator acetyltransferase complex subunit 4): p65 translocation robust z-score = -0.34; nuclear/cytoplasmic p65 ratio, rep 1 = 1.49; nuclear/cytoplasmic p65 ratio, rep 2 = 1.32; low cell count flag = enough cells to score; outcome = inactive
Cnih2 (cornichon family AMPA receptor auxiliary protein 2): p65 translocation robust z-score = -0.02; nuclear/cytoplasmic p65 ratio, rep 1 = 1.61; nuclear/cytoplasmic p65 ratio, rep 2 = 1.76; low cell count flag = enough cells to score; outcome = inactive
Nfkbia: p65 translocation robust z-score = -2.03; nuclear/cytoplasmic p65 ratio, rep 1 = 1.13; nuclear/cytoplasmic p65 ratio, rep 2 = 1.19; low cell count flag = enough cells to score; outcome = active
Polr2g (polymerase (RNA) II (DNA directed) polypeptide G): p65 translocation robust z-score = -1.21; nuclear/cytoplasmic p65 ratio, rep 1 = 1.27; nuclear/cytoplasmic p65 ratio, rep 2 = 1.25; low cell count flag = enough cells to score; outcome = inactive
Wsb2 (WD repeat and SOCS box-containing 2): p65 translocation robust z-score = 0.64; nuclear/cytoplasmic p65 ratio, rep 1 = 1.4; nuclear/cytoplasmic p65 ratio, rep 2 = 1.32; low cell count flag = enough cells to score; outcome = inactive
Irgq (immunity-related GTPase family, Q): p65 translocation robust z-score = 0.19; nuclear/cytoplasmic p65 ratio, rep 1 = 1.55; nuclear/cytoplasmic p65 ratio, rep 2 = 1.8; low cell count flag = enough cells to score; outcome = inactive
Cntnap4 (contactin associated protein-like 4): p65 translocation robust z-score = 0.71; nuclear/cytoplasmic p65 ratio, rep 1 = 1.42; nuclear/cytoplasmic p65 ratio, rep 2 = 1.89; low cell count flag = enough cells to score; outcome = inactive
Or5t18 (olfactory receptor family 5 subfamily T member 18): p65 translocation robust z-score = 1.69; nuclear/cytoplasmic p65 ratio, rep 1 = 1.85; nuclear/cytoplasmic p65 ratio, rep 2 = 1.66; low cell count flag = enough cells to score; outcome = inactive
Dolpp1 (dolichyl pyrophosphate phosphatase 1): p65 translocation robust z-score = -1.25; nuclear/cytoplasmic p65 ratio, rep 1 = 1.35; nuclear/cytoplasmic p65 ratio, rep 2 = 1.18; low cell count flag = enough cells to score; outcome = inactive
Tpbpb (trophoblast specific protein beta): p65 translocation robust z-score = 0.15; nuclear/cytoplasmic p65 ratio, rep 1 = 1.38; nuclear/cytoplasmic p65 ratio, rep 2 = 1.26; low cell count flag = enough cells to score; outcome = inactive
Stam: p65 translocation robust z-score = 0.78; nuclear/cytoplasmic p65 ratio, rep 1 = 1.66; nuclear/cytoplasmic p65 ratio, rep 2 = 1.67; low cell count flag = enough cells to score; outcome = inactive
Dbpht2 (DNA binding protein with his-thr domain): p65 translocation robust z-score = -0.97; nuclear/cytoplasmic p65 ratio, rep 1 = 1.36; nuclear/cytoplasmic p65 ratio, rep 2 = 1.48; low cell count flag = enough cells to score; outcome = inactive
Spryd7 (SPRY domain containing 7): p65 translocation robust z-score = -2.14; nuclear/cytoplasmic p65 ratio, rep 1 = 1.1; nuclear/cytoplasmic p65 ratio, rep 2 = 1.16; low cell count flag = enough cells to score; outcome = active
Slco4a1: nuclear/cytoplasmic p65 ratio, rep 1 = 0.964; nuclear/cytoplasmic p65 ratio, rep 2 = 1.07; low cell count flag = fewer than 50 cells per well; well left out of scoring; outcome = inactive
Phf7 (PHD finger protein 7): nuclear/cytoplasmic p65 ratio, rep 1 = 1.53; nuclear/cytoplasmic p65 ratio, rep 2 = 1.11; low cell count flag = fewer than 50 cells per well; well left out of scoring; outcome = inactive
Psg16 (pregnancy specific beta-1-glycoprotein 16): p65 translocation robust z-score = 0.08; nuclear/cytoplasmic p65 ratio, rep 1 = 1.39; nuclear/cytoplasmic p65 ratio, rep 2 = 1.28; low cell count flag = enough cells to score; outcome = inactive
Sap130 (Sin3A associated protein 130): nuclear/cytoplasmic p65 ratio, rep 1 = 1.19; nuclear/cytoplasmic p65 ratio, rep 2 = 1.26; low cell count flag = fewer than 50 cells per well; well left out of scoring; outcome = inactive
Mup4 (major urinary protein 4): p65 translocation robust z-score = 0.51; nuclear/cytoplasmic p65 ratio, rep 1 = 1.88; nuclear/cytoplasmic p65 ratio, rep 2 = 1.65; low cell count flag = enough cells to score; outcome = inactive
Ttbk1 (tau tubulin kinase 1): nuclear/cytoplasmic p65 ratio, rep 1 = 1.13; nuclear/cytoplasmic p65 ratio, rep 2 = 1.21; low cell count flag = fewer than 50 cells per well; well left out of scoring; outcome = inactive
Pcbp4 (poly(rC) binding protein 4): p65 translocation robust z-score = -0.14; nuclear/cytoplasmic p65 ratio, rep 1 = 1.5; nuclear/cytoplasmic p65 ratio, rep 2 = 1.33; low cell count flag = enough cells to score; outcome = inactive
Mccc2 (methylcrotonoyl-Coenzyme A carboxylase 2 (beta)): p65 translocation robust z-score = -0.81; nuclear/cytoplasmic p65 ratio, rep 1 = 1.33; nuclear/cytoplasmic p65 ratio, rep 2 = 1.31; low cell count flag = enough cells to score; outcome = inactive
